Test results: patent publication US20060122107A1 (Monash University, priority 2002, published 2006)
HELM strings list residues between dots; [ac] is acetyl, [am] amide, other brackets name non-standard units.

Experiment: general procedure: Fmoc solid-phase peptide synthesis
Details: whole synthesis

Substance	final purity (method not given) [%]
PEPTIDE1{S.I.I.[bC3Asn].F.E.K.L}$$$$V2.0	86
PEPTIDE1{S.[bC3Ile].I.N.F.E.K.L}$$$$V2.0	>80
PEPTIDE1{[bC3Ser].I.I.N.F.E.K.L}$$$$V2.0	98
PEPTIDE1{S.I.I.N.[bC3Phe].E.K.L}$$$$V2.0	85
PEPTIDE1{S.I.[bC3Ile].N.F.E.K.L}$$$$V2.0	98
PEPTIDE1{S.I.I.N.F.E.K.[bC3Leu]}$$$$V2.0	>80
Ser Ile Ile Asn Phe β^c3Glu Lys Leu	95
PEPTIDE1{S.I.I.N.F.E.K.L}$$$$V2.0	>70
